Results reported in the supplement of paper PMC9135407.
“And” between values parts separate entries of the source, which are not always exact repeats. Equal values may be shown once. Where a name gives a salt, the structure may show the parent alone. ± gives the standard deviation of the averaged measurements. The list shows a part of the results. Plates or batches differ in their baseline, so values are only roughly comparable.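 Culture-activated primary human stellate myofibroblasts, where regained lipid droplets signal inactivation. Value: share of Hoechst-counted cells above a per-plate Bodipy cutoff, in duplicate wells, with DMSO negative and nortriptyline positive controls on each plate. Hits: a control-normalized score above the plate's top-tenth-percentile nortriptyline wells, or one of a plate's three best wells. Final well concentrations are not given.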

Tested on: primary human hepatic stellate cells (donor 1)
Assay: percent Bodipy-positive cells; higher = more lipid droplet accumulation
Settings: 48 h
Experimental: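 Primary lipid accumulation screen in primary human hepatic stellate cell myofibroblasts (donor 1, passage 8) in 384-well plates. 100 nL of library compound was pin-transferred into 30 µL medium in duplicate, and cells were treated for 48 h. The 'Scaled' score combines distance from plate baseline, toxicity and reproducibility penalties, and is normalised to nortriptyline (positive) and DMSO (negative) controls on each plate. A hit is defined as scaled >0.85 or among the top 3 wells per plate.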

[1] = library stock concentration: 3.33 mM
[2] = library stock concentration: 10 mM
[3] = library stock concentration: 1 mM

**Q.** How did the “percent Bodipy-positive cells” value [1] turn out when `CN1C2CC(O)CC1C1OC12` (configuration not stated) [Scopine] was run?
**A.** 5.61 ± 0.073%

**Q.** And the “percent Bodipy-positive cells” value [2]?
**A.** 15.8 ± 4%

**Q.** For `CC(C)N(CCNC(=O)CN1CCCC1=O)C(C)C` [Pramiracetam], which “percent Bodipy-positive cells” value [1] is on record?
**A.** 5.71 ± 2%

**Q.** What about the “percent Bodipy-positive cells” value [2] of the same molecule?
**A.** 9.47 ± 2.1%

**Q.** Which “percent Bodipy-positive cells” value [2] does the source give for `O=C[C@H](Cl)[C@@H](O)[C@H](O)[C@H](O)CO` [2-Chloro-2-deoxy-D-glucose] here?
**A.** 49.3 ± 14%

**Q.** `NNC(N)=O` [Semicarbazide hydrochloride] was tested. Which “percent Bodipy-positive cells” value [2] did it give?
**A.** 18.6 ± 4.1%

**Q.** With `CNCC(=O)c1ccc(O)c(O)c1` as the molecule, how does the “percent Bodipy-positive cells” value [2] read?
**A.** 30.5 ± 1.7%

**Q.** `CNCC(=O)c1ccc(O)c(O)c1` [Adrenalone HCl] was tested. Which “percent Bodipy-positive cells” value [1] did it give?
**A.** 11.9 ± 2.2%

**Q.** What about the “percent Bodipy-positive cells” value [2] of the same molecule?
**A.** 36.4 ± 5.8%

**Q.** With `Cc1cc2c(C(C)C)c(O)c(O)c(C=O)c2c(O)c1-c1c(C)cc2c(C(C)C)c(O)c(O)c(C=O)c2c1O` as the molecule, how does the “percent Bodipy-positive cells” value [2] read?
**A.** 77.4 ± 2%

**Q.** With `O=C(NC(=O)c1c(F)cccc1F)Nc1cc(Cl)c(OC(F)(F)C(F)C(F)(F)F)cc1Cl` (configuration not stated) as the molecule, how does the “percent Bodipy-positive cells” value [2] read?
**A.** 74.94 ± 0.18%

**Q.** `COC(=O)C1=CCCN(C)C1` [Arecoline hydrobromide] was tested. Which “percent Bodipy-positive cells” value did it give?
**A.** 18.1 ± 4.7%

**Q.** And the “percent Bodipy-positive cells” value [2]?
**A.** 20% and 30.5%

**Q.** Which “percent Bodipy-positive cells” value [1] does the source give for `COC(=O)C1=CCCN(C)C1` [Arecoline] here?
**A.** 29.5 ± 32%

**Q.** What about the “percent Bodipy-positive cells” value [2] of the same molecule?
**A.** 19.4 ± 0.27%

**Q.** `C=C(C)[C@H]1Cc2c(ccc3c2O[C@@H]2COc4cc(OC)c(OC)cc4[C@@H]2C3=O)O1` [Rotenone] was tested. Which “percent Bodipy-positive cells” value [2] did it give?
**A.** 35.6 ± 2.9%

**Q.** For `CC(CN)CC(=O)O` (configuration not stated) [3-Methyl-GABA], which “percent Bodipy-positive cells” value [2] is on record?
**A.** 9.29 ± 0.97%

**Q.** What does the source list for `COc1cc2c(cc1OC)[C@@]13CCN4CC5=CCO[C@H]6CC(=O)N2[C@H]1[C@H]6[C@H]5C[C@H]43` [Brucine]?
**A.** percent Bodipy-positive cells (library stock concentration: 5.1 mM): 11.2 ± 2%; percent Bodipy-positive cells [2]: 20.8% and 20.7%

**Q.** For `Fc1ccc(C(OCCN2CCN(CCCc3ccccc3)CC2)c2ccc(F)cc2)cc1`, which “percent Bodipy-positive cells” value [2] is on record?
**A.** 100%

**Q.** With `CC(C)(C)NCC(O)c1cc(Cl)c(N)c(Cl)c1` (configuration not stated) [Clenbuterol hydrochloride] as the molecule, how does the “percent Bodipy-positive cells” value read?
**A.** 35 ± 9.8%

**Q.** For `CC(C)(C)NCC(O)c1cc(Cl)c(N)c(Cl)c1` (configuration not stated) [Clenbuterol], which “percent Bodipy-positive cells” value (library stock concentration: 7.2 mM) is on record?
**A.** 15.5 ± 3.5%

**Q.** How did the “percent Bodipy-positive cells” value [2] turn out when `CS(=O)(=O)O.Oc1ccc2c3c1O[C@H]1c4oc5ccccc5c4C[C@@]4(O)C(C2)N(CC2CC2)CCC314` (some centres not stated) [Naltriben methanesulfonate] was run?
**A.** 96.9 ± 2.5%

**Q.** For `CNC(C)C(O)c1ccccc1` (configuration not stated) [Racephedrine hydrochloride], which “percent Bodipy-positive cells” value (library stock concentration: 9.9 mM) is on record?
**A.** 14.4 ± 1.7%

**Q.** And the “percent Bodipy-positive cells” value [2]?
**A.** 7.46 ± 0.77%

**Q.** Which “percent Bodipy-positive cells” value [2] does the source give for `O=C1Nc2cc(Cl)c(Cl)cc2N2CCNCC12` (configuration not stated) here?
**A.** 36.6 ± 7%

**Q.** `CC[C@H]1CN2CCc3cc(OC)c(OC)cc3[C@@H]2C[C@@H]1C[C@H]1NCCc2cc(OC)c(OC)cc21` [Emetine dihydrochloride hydrate] was tested. Which “percent Bodipy-positive cells” value [2] did it give?
**A.** 97.65 ± 0.74%

**Q.** How did the “percent Bodipy-positive cells” value [2] turn out when `CC[C@H]1CN2CCc3cc(OC)c(OC)cc3[C@@H]2C[C@@H]1C[C@H]1NCCc2cc(OC)c(OC)cc21` [Emetine] was run?
**A.** 74.7 ± 3.9%

**Q.** `CC(C)(C)NCC(O)COc1cccc2[nH]c(C#N)cc12` (configuration not stated) [Cyanopindolol hemifumarate] was tested. Which “percent Bodipy-positive cells” value [2] did it give?
**A.** 11.6 ± 1.8%

**Q.** For `C=C(C)[C@@H]1CCC(C)=C[C@H]1C1=C(O)C(=O)C(CCCCC)=CC1=O`, which “percent Bodipy-positive cells” value [3] is on record?
**A.** 15.6 ± 3.2%

**Q.** How did the “percent Bodipy-positive cells” value (library stock concentration: 4.8 mM) turn out when `COc1cc([C@@H]2c3cc4c(cc3[C@H](O)[C@H]3COC(=O)[C@H]23)OCO4)cc(OC)c1OC` [Podofilox] was run?
**A.** 39.45 ± 0.073%

**Q.** And the “percent Bodipy-positive cells” value [2]?
**A.** 75.1 ± 2.4%

**Q.** For `COc1cc([C@@H]2c3cc4c(cc3[C@H](O)[C@H]3COC(=O)[C@H]23)OCO4)cc(OC)c1OC` [Podophyllotoxin], which “percent Bodipy-positive cells” value is on record?
**A.** 25.4 ± 7.4%

**Q.** What about the “percent Bodipy-positive cells” value [2] of the same molecule?
**A.** 67.4 ± 5%

**Q.** `CCNC1(c2cccs2)CCCCC1=O` (configuration not stated) [Tiletamine hydrochloride] was tested. Which “percent Bodipy-positive cells” value did it give?
**A.** 9.1 ± 4.1%

**Q.** Which results are given for `Cc1ccc(O)cc1.Cc1cccc(O)c1.Cc1ccccc1O` [Cresol]?
**A.** percent Bodipy-positive cells [2]: 5.63 ± 0.42%; percent Bodipy-positive cells (library stock concentration: 18.5 mM): 1.54 ± 0.8%

**Q.** Which “percent Bodipy-positive cells” value [2] does the source give for `CS(=N)(=O)CC[C@H](N)C(=O)O` (stereo partly drawn) [L-Methionine sulfoximine] here?
**A.** 38.9 ± 4.5%

**Q.** For `CS(=N)(=O)CC[C@H](N)C(=O)O` (some centres not stated) [Methionine sulfoximine (L)], which “percent Bodipy-positive cells” value is on record?
**A.** 50.3 ± 18%

**Q.** `CC[C@H]1[C@@H]2C[C@H]3[C@@H]4N(C)c5ccccc5[C@]45C[C@@H]([C@@H]2[C@H]5O)N3[C@@H]1O` [Ajmaline] was tested. Which “percent Bodipy-positive cells” value did it give?
**A.** 42.5 ± 5.6%

**Q.** And the “percent Bodipy-positive cells” value [2]?
**A.** 32.7 ± 16%

**Q.** How did the “percent Bodipy-positive cells” value [2] turn out when `O=C(CCCN1CCC2(CC1)C(=O)N(Cc1cccc(F)c1)CN2c1ccccc1)c1ccc(F)cc1.O=C(O)/C=C\C(=O)O` [3'-Fluorobenzylspiperone maleate] was run?
**A.** 65.2 ± 2.9%

**Q.** How did the “percent Bodipy-positive cells” value turn out when `C[C@@H]1CC[C@H]2[C@@H](C)C(=O)O[C@@H]3O[C@@]4(C)CC[C@@H]1[C@]32OO4` [Artemisinin] was run?
**A.** 30.3 ± 8.1%

**Q.** And the “percent Bodipy-positive cells” value [1]?
**A.** 12.2 ± 1.3%

**Q.** And the “percent Bodipy-positive cells” value (library stock concentration: 7.1 mM)?
**A.** 10.2 ± 5%

**Q.** How did the “percent Bodipy-positive cells” value [3] turn out when `CCCCCCCC/C=C\CCCCCCCC(=O)OC[C@@H](COP(O)(O)=S)OC` was run?
**A.** 15.4 ± 1%

**Q.** `CCC1(c2cccc(O)c2)CCCCN(C)C1` (configuration not stated) [Meptazinol hydrochloride] was tested. Which “percent Bodipy-positive cells” value did it give?
**A.** 23.8 ± 0.57%

**Q.** Which “percent Bodipy-positive cells” value [1] does the source give for `CCC1(c2cccc(O)c2)CCCCN(C)C1` (configuration not stated) [Meptazinol HCl] here?
**A.** 10.1 ± 3.6%

**Q.** And the “percent Bodipy-positive cells” value [2]?
**A.** 40.8 ± 4.2%

**Q.** `COc1ccc2c(c1)/C(=C/c1cnc[nH]1)C(=O)N2` was tested. Which “percent Bodipy-positive cells” value [1] did it give?
**A.** 19.7 ± 4.6%

**Q.** For `Cc1[nH]c2ccc(Cl)cc2c1C1=CCNCC1.Cl`, which “percent Bodipy-positive cells” value [2] is on record?
**A.** 69.75 ± 0.24%

**Q.** How did the “percent Bodipy-positive cells” value turn out when `CN1[C@@H](C[C@@H](O)c2ccccc2)CCC[C@H]1C[C@H](O)c1ccccc1` [Lobelanidine hydrochloride] was run?
**A.** 39 ± 3%

**Q.** `CCCN(CCC)CCc1ccc(O)c(O)c1` [Dipropyldopamine hydrobromide] was tested. Which “percent Bodipy-positive cells” value [2] did it give?
**A.** 39 ± 3%

**Q.** `COc1ccc(C[C@H]2NC[C@H](O)[C@H]2OC(C)=O)cc1` [Anisomycin] was tested. Which “percent Bodipy-positive cells” value [2] did it give?
**A.** 92.83 ± 0.86%

**Q.** Which “percent Bodipy-positive cells” value [2] does the source give for `O=C1c2ccccc2C(=O)c2ccccc21` [Anthraquinone] here?
**A.** 27.6 ± 16%

**Q.** For `Ic1ccccc1CNC1C2CCN(CC2)C1C(c1ccccc1)c1ccccc1` [L-703,606 oxalate salt hydrate], which “percent Bodipy-positive cells” value [2] is on record?
**A.** 98.04 ± 0.52%

**Q.** With `COc1ccc2c(c1)[nH]c1c(C)nccc12` [Harmine] as the molecule, how does the “percent Bodipy-positive cells” value [3] read?
**A.** 25.1 ± 6.8%

**Q.** And the “percent Bodipy-positive cells” value [2]?
**A.** 87.05 ± 0.27%

**Q.** Which “percent Bodipy-positive cells” value [2] does the source give for `CC1(C)C(C=C(Cl)Cl)C1C(=O)OCc1cccc(Oc2ccccc2)c1` (configuration not stated) here?
**A.** 43.1 ± 3.8%

**Q.** For `CO[C@H](C/C=C\C=C\CC/C=C/C[C@H](C)/C=C/C(=C\C(=O)O)CC(=O)O)/C(C)=C\C=C(/C)C(=O)O` [Bongkrekic acid], which “percent Bodipy-positive cells” value [3] is on record?
**A.** 18.8 ± 7.9%

**Q.** For `O=[N+]([O-])c1ccc([As](=O)(O)O)cc1`, which “percent Bodipy-positive cells” value [2] is on record?
**A.** 27.1 ± 3.4%

**Q.** What does the source list for `CN(C)NC(=O)CCC(=O)O` [Daminozide]?
**A.** percent Bodipy-positive cells (library stock concentration: 80 uM): 37 ± 0.46%; percent Bodipy-positive cells (library stock concentration: 400 uM): 43.2 ± 2.4%; percent Bodipy-positive cells (library stock concentration: 2 mM): 40.8 ± 0.9%; percent Bodipy-positive cells [2]: 35.4 ± 5.9%

**Q.** For `NCCc1c[nH]c2ccc(O)cc12` [Serotonin hydrochloride], which “percent Bodipy-positive cells” value is on record?
**A.** 31.1 ± 6.9%

**Q.** What about the “percent Bodipy-positive cells” value [2] of the same molecule?
**A.** 42.8 ± 0.49%

**Q.** `NCCc1c[nH]c2ccc(O)cc12` [Serotonin] was tested. Which “percent Bodipy-positive cells” value [2] did it give?
**A.** 4.87 ± 1.1%

**Q.** Which results are given for `NCCc1c[nH]c2ccc(O)cc12` [Serotonin HCl]?
**A.** percent Bodipy-positive cells [1]: 5.99 ± 0.99%; percent Bodipy-positive cells [2]: 27.1 ± 8.5%

**Q.** How did the “percent Bodipy-positive cells” value [2] turn out when `CNC(C)[C@H](O)c1ccccc1` (some centres not stated) [Ephedrine (1r,2s) hydrochloride] was run?
**A.** 13.1 ± 2%

**Q.** Which “percent Bodipy-positive cells” value [2] does the source give for `CCN(C(C)=O)c1cccc(-c2ccnc3c(C#N)cnn23)c1` [Zaleplon] here?
**A.** 6.1 ± 0.64%
